Laboratory results as given in publication PMC9440017, “Structural basis for Gemin5 decamer-mediated mRNA binding” (Nature Communications, 2022).
Protein sequences can lack the tags named with them.

Molecular target: T1, G5C (Gemin5 841-1508) wild type (Homo sapiens) (UniProt Q8TEQ6)
T1 sequence (looked up): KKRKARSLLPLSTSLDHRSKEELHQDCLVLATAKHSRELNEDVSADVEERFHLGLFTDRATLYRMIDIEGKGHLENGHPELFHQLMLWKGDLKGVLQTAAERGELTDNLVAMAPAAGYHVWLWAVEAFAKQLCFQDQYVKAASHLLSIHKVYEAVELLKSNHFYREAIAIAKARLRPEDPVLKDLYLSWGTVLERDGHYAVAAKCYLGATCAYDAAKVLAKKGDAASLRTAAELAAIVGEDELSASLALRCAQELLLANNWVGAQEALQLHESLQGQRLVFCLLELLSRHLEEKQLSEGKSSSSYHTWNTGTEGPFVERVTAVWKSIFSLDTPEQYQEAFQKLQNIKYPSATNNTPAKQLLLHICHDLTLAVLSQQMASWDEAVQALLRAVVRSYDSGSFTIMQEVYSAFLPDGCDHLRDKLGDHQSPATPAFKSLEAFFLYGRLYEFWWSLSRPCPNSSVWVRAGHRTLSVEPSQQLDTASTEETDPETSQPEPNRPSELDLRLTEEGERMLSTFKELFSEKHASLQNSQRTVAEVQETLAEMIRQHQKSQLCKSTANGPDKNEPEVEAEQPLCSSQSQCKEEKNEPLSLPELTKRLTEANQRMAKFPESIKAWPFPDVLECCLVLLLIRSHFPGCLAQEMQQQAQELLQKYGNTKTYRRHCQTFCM
Test: fluorescence polarization
Settings: 40 nM RNA; FP: 20 mM Tris-HCl pH 7.5, 150 mM NaCl, 10 nM RNA (40 nM U7), protein 0-41 uM, temperature not stated; recombinant protein; residues 841-1508; protein details: N-terminal His6 removed by TEV; label: 5' 6-FAM

Sequence: UUUUUUU [poly-U (U7)]
- Kd: > 500 µM
